Assay results taken from publication doi:10.1101/2024.08.08.607204, “Mechanism of ASF1 Inhibition by CDAN1” (bioRxiv, 2024).
Like-named read-outs stand apart in the source and are kept apart here. These are yes or no findings as the source states them, for the method shown. Binding seen in cells or lysates may run through a third protein. Some entries that bind do so weakly or less than the wild type. For some of these results: Tags and fused reporters may be left off the sequences shown. Each block holds one molecule with its values, some of them ahead of it.

Sequences of proteins named here, by UniProt entry; tags and fusion partners are left off.
UniProt Q9Y294: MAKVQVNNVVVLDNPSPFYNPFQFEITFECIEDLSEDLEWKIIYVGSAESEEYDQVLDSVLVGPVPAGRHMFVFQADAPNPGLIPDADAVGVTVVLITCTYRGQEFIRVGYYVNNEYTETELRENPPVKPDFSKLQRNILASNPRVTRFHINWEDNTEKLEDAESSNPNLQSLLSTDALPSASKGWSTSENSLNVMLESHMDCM
UniProt Q9NVP2: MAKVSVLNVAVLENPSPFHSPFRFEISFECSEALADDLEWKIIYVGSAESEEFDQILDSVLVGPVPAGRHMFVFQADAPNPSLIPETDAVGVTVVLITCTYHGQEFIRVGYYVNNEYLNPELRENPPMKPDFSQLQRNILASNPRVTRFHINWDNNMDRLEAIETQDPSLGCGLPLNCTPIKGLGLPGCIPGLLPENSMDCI

How the values were obtained:
[1] = target: T1, FLAG-tagged CDIN1 (F-CDIN1) (UniProt Q9Y2V0); test: co-IP + pull-down; tandem purification from transiently transfected Expi293 cells: anti-FLAG immunoprecipitation, 3x FLAG peptide elution, then Strep-Tactin pulldown, desthiobiotin elution; Coomassie staining and immunoblotting
T1 sequence: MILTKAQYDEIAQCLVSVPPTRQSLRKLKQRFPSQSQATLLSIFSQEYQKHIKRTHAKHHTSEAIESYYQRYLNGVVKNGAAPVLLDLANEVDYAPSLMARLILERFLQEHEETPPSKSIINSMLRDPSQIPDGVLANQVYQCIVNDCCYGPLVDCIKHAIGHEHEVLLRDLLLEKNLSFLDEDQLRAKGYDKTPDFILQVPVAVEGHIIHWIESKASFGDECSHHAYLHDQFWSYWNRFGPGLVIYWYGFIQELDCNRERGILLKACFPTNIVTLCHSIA

[2] = target: T2, Strep-tagged CDAN1 (ST-CDAN1), wildtype (human, UniProt Q8IWY9 1-1227); test: as above
T2 construct: Codanin-1 (CDAN1) cDNA from Horizon Discovery/Dharmacon; a point mutation of the clone (S421F) was corrected; in pCDNA3.1; Dimer by SEC-MALS and cryo-EM; Same plasmid used in Expi293 (purifications) and in Flp-In 293 T-REx (pulldowns); kept as one molecule; also called WT CDAN1; Strep-CDAN1; source: Expi293, transiently transfected, in lysate and purified in complexes (anti-FLAG, Strep-Tactin); …
T2 sequence: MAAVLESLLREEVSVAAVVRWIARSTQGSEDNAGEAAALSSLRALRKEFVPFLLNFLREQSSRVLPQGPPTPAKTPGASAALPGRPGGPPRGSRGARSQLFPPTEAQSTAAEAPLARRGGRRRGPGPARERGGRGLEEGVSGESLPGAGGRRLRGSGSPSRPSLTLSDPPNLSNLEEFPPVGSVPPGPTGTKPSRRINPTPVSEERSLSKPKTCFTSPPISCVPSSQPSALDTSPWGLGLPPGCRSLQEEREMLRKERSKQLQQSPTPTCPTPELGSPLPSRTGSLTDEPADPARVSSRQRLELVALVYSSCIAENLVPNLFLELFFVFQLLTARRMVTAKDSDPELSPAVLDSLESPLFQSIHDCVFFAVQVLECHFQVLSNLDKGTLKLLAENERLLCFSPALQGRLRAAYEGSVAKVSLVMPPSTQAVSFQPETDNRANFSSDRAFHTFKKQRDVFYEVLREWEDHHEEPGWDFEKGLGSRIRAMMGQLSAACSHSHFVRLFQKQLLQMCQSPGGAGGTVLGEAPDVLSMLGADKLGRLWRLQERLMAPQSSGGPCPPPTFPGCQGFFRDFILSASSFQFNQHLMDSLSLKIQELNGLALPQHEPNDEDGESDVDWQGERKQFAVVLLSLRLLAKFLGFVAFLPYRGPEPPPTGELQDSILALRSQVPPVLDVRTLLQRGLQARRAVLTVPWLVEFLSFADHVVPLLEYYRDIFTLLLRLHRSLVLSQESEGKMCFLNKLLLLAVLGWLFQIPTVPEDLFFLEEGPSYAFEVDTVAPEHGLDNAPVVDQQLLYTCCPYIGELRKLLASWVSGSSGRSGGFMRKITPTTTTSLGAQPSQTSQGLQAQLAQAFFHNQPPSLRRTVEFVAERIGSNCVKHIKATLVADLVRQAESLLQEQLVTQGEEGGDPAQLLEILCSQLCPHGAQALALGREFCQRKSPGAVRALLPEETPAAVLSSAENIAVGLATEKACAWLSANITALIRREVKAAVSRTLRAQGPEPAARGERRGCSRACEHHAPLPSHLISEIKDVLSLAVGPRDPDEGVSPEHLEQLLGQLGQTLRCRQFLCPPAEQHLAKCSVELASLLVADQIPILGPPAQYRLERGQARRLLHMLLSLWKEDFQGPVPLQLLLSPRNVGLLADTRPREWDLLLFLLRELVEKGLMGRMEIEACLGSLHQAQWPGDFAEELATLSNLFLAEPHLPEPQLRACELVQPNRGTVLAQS

[3] = target: T3, endogenous CDIN1 with a C-terminal HaloTag-FLAG (HF) epitope (human (endogenous in Flp-In 293 T-REx)) (UniProt Q9Y2V0); test: co-IP; anti-FLAG M2 agarose immunoprecipitation of endogenously HaloTag-FLAG-tagged CDAN1 or CDIN1 from Flp-In 293 T-REx lysates in IP buffer (50 mM HEPES pH 7.5, 100 mM KOAc, 2.5 Mg(OAc)2, 1% Triton X-100); immunoblotting
T3 sequence: T1 sequence

[4] = target: FLAG-tagged ASF1A (F-ASF1A) (human) (UniProt Q9Y294); test: co-IP + pull-down; tandem purification from transiently transfected Expi293 cells: anti-FLAG immunoprecipitation, 3x FLAG peptide elution, then Strep-Tactin pulldown, desthiobiotin elution; Coomassie staining and immunoblotting
[5] = target: T1, FLAG-tagged CDIN1 (F-CDIN1); test: as above; remark: listed apart in the source
[6] = target: T2, Strep-tagged CDAN1 (ST-CDAN1), wildtype; test: as above; remark: listed apart in the source

binding [1]: binds | binding [2]: binds | binding [3]: binds
Molecule: endogenous ASF1A (from UniProt Q9Y294 1-204)

binding [3]: binds
Molecule: endogenous ASF1B (from UniProt Q9NVP2 1-202)

binding [4]: binds | binding [5]: binds | binding [6]: binds
B1: FLAG-tagged CDIN1 (F-CDIN1) (natural protein, UniProt Q9Y2V0 1-281, looked up)
chain: T1 sequence
notes: CDIN1 (C15orf41) cDNA synthesized by IDT, in pCDNA3.1; source: Expi293, transiently transfected, in lysate and purified in complexes (anti-FLAG, Strep-Tactin); not shown: 3xFLAG, N-terminal, kept
